# Measurements: patent US8575193B2, “N-substituted tetrahydroisoquinoline/isoindoline hydroxamic acid compounds” (4SC AG, priority 2008, dated 2013)
# Some of these results come from one statement about several compounds together.
# Tested on: nuclear HeLa extract (mixture of class I and II HDACs)
# Assay: Fluorimetric HDAC activity assay with nuclear HeLa extract
# Type: biochemical, human
# Conditions: nuclear HeLa extract inhibitory activity; substrate Ac-NH-GGK(Ac)-AMC 25 μM, 90 min at 30° C.
# Procedure: HDAC activity is isolated from nuclear HeLa extracts according to a method original described by Dignam et al. (Nucl. Acids Res. 11, pp 1475, 1983). Briefly, nuclei isolated from HeLa cells (CIL SA, Seneffe, Belgium) are resuspended in buffer C (20 mM Hepes pH 7.9, 25% v:v glycerol, 0.42M NaCl, 1.5 mM MgCl2, 0.2 mM EDTA, 0.5 mM PefaBloc and 0.5 mM DTT) and stirred for 30 min on ice. After centrifugation, the supernatant is dialysed against buffer D (40 mM Tris HCl pH 7.4, 100 mM KCl, 0.2 mM EDTA, 0.5 mM DTT and 25% v:v glycerol) for 5 h at 4° C. After dialysis and centrifugation, the supernatant is stored in aliquots at −80° C. and used for Western blot analysis as well as the enzymatic assay as described in the following.
# The HDAC enzyme activity assay is done as described by Wegener et al. (Chem. & Biol. 10, 61-68, 2003). Briefly 40 μl of a 1:100 dilution (=0.4 μl) nuclear HeLa extract (mixture of class I and II HDACs), 29 μl enzyme buffer (15 mM Tris HCl pH 8.1, 0.25 mM EDTA, 250 mM NaCl, 10% v:v glycerol) and 1 μl test compound are added to a well of a 96 well microtiter plate and reaction started by addition of 3 μl substrate (Ac-NH-GGK(Ac)-AMC; final concentration 25 μM and final volume […]). […] After incubation at room temperature for further 40 min, fluorescence is measured using a Wallac Victor 1420 multilabel counter (Ex 355 nm, Em 460 nm) for quantification of AMC (7-amino-4-methylcoumarin) generated by trypsine cleavage of the deacetylated peptide. […] The corresponding pIC50 values of the compounds for HDAC inhibitory activity are determined from the concentration-effect curves by means of non-linear regression (Graphpad Prism software).
row,SMILES,HeLa nuclear extract [pIC50]
1,"O=C(NO)c1ccc2c(c1)CCN(C(=O)C1CC1)C2 [Example 16, N-Hydroxy-2-(cyclopropylcarbonyl)-1,2,3,4-tetrahydroisoquinoline-6-carboxamide]",4.0-5.0
2,"COCCOCC(=O)N1CCc2cc(C(=O)NO)ccc2C1 [Example 11, N-Hydroxy-2-[(2-methoxyethoxy)acetyl]-1,2,3,4-tetrahydroisoquinoline-6-carboxamide]",4.0-5.0
3,"O=C(NO)c1ccc2c(c1)CN(C(=O)C1CCOC1)CC2 (centres unmarked) [Example 20, N-Hydroxy-2-(tetrahydrofuran-3-ylcarbonyl)-1,2,3,4-tetrahydroisoquinoline-7-carboxamide]",4.0-5.0
4,"COCCCOC(=O)N1CCc2cc(C(=O)NO)ccc2C1 [Example 6, 3-Methoxypropyl-6-(hydroxycarbamoyl)-3,4-dihydroisoquinoline-2(1H)-carboxylate]",4.0-5.0
5,"CC(=O)N1CCc2cc(C(=O)NO)ccc2C1 [Example 12, 2-Acetyl-N-hydroxy-1,2,3,4-tetrahydroisoquinoline-6-carboxamide]",4.0-5.0
6,"O=C(NO)c1ccc2c(c1)CCN(C(=O)C1CCOC1)C2 (centres unmarked) [Example 13, N-Hydroxy-2-(tetrahydrofuran-3-ylcarbonyl)-1,2,3,4-tetrahydroisoquinoline-6-carboxamide]",4.0-5.0
7,"O=C(NO)c1ccc2c(c1)CN(C(=O)Cc1c[nH]c3ccccc13)CC2 [Example 18, N-Hydroxy-2-(1H-indol-3-ylacetyl)-1,2,3,4-tetrahydroisoquinoline-7-carboxamide]",>5.0-7.0
8,"COCCCNC(=O)N1CCc2cc(C(=O)NO)ccc2C1 [Example 5, N6-Hydroxy-N2-(3-methoxypropyl)-3,4-dihydroisoquinoline-2,6(1H)-dicarboxamide]",>5.0-7.0
9,"Cc1ccc(C(=O)N2CCc3ccc(C(=O)NO)cc3C2)cc1 [Example 23, N-Hydroxy-2-(4-methylbenzoyl)-1,2,3,4-tetrahydroisoquinoline-7-carboxamide]",4.0-5.0
10,"O=C(NO)c1ccc2c(c1)CN(C(=O)NCCc1ccccc1)CC2 [Example 22, N7-Hydroxy-N2-(2-phenylethyl)-3,4-dihydroisoquinoline-2,7(1H)-dicarboxamide]",>5.0-7.0
11,"COc1ccc2[nH]c(C(=O)N3CCc4ccc(C(=O)NO)cc4C3)cc2c1 [Example 24, N-Hydroxy-2-[(5-methoxy-1H-indol-2-yl)carbonyl]-1,2,3,4-tetrahydroisoquinoline-7-carboxamide]",>5.0-7.0
12,"COc1ccc2[nH]c(C(=O)N3CCc4cc(C(=O)NO)ccc4C3)cc2c1 [Example 15, N-Hydroxy-2-[(5-methoxy-1H-indol-2-yl)carbonyl]-1,2,3,4-tetrahydroisoquinoline-6-carboxamide]",>5.0-7.0
13,"CC#CC(=O)N1CCc2ccc(C(=O)NO)cc2C1 [Example 17, 2-But-2-ynoyl-N-hydroxy-1,2,3,4-tetrahydroisoquinoline-7-carboxamide]",4.0-5.0
14,"CNC(=O)N1CCc2cc(C(=O)NO)ccc2C1 [Example 4, N6-Hydroxy-N2-methyl-3,4-dihydroisoquinoline-2,6(1H)-dicarboxamide]",>5.0-7.0
15,"O=C(NO)c1ccc2c(c1)CCN(C(=O)C1CCC1)C2 [Example 3, 2-(Cyclobutylcarbonyl)-N-hydroxy-1,2,3,4-tetrahydroisoquinoline-6-carboxamide]",4.0-5.0

# Same assay, conditions: nuclear HeLa extract inhibitory activity; substrate Ac-NH-GGK(Ac)-AMC 25 μM, 90 min at 30° C.; hydrochloride
row,SMILES,HeLa nuclear extract [pIC50]
1,"CN(C)CCCC(=O)N1CCc2cc(C(=O)NO)ccc2C1.Cl [Example 9, 2-[4-(Dimethylamino)butanoyl]-N-hydroxy-1,2,3,4-tetrahydroisoquinoline-6-carboxamide hydrochloride]",4.0-5.0
2,"Cl.O=C(NO)c1ccc2c(c1)CN(C(=O)Cc1cccnc1)CC2 [Example 19, N-Hydroxy-2-(pyridin-3-ylacetyl)-1,2,3,4-tetrahydroisoquinoline-7-carboxamide hydrochloride]",>5.0-7.0
3,"Cl.O=C(NO)c1ccc2c(c1)CCN(C(=O)Cc1ccccn1)C2 [Example 2, N-Hydroxy-2-(pyridin-2-ylacetyl)-1,2,3,4-tetrahydroisoquinoline-6-carboxamide hydrochloride]",4.0-5.0
4,"Cc1nccn1CC(=O)N1CCc2cc(C(=O)NO)ccc2C1.Cl [Example 10, N-Hydroxy-2-[(2-methyl-1H-imidazol-1-yl)acetyl]-1,2,3,4-tetrahydroisoquinoline-6-carboxamide hydrochloride]",4.0-5.0
5,"Cl.O=C(NO)c1ccc2c(c1)CN(C(=O)Cc1ccccn1)CC2 [Example 21, N-Hydroxy-2-(pyridin-2-ylacetyl)-1,2,3,4-tetrahydroisoquinoline-7-carboxamide hydrochloride]",4.0-5.0
6,"Cl.O=C(NO)c1ccc2c(c1)CCN(C(=O)CCc1cccnc1)C2 [Example 7, N-Hydroxy-2-(3-pyridin-3-ylpropanoyl)-1,2,3,4-tetrahydroisoquinoline-6-carboxamide hydrochloride]",4.0-5.0
7,"Cl.O=C(NO)c1ccc2c(c1)CCN(C(=O)Cc1c[nH]c3ccccc13)C2 [Example 1, N-Hydroxy-2-(indol-3-ylacetyl)-1,2,3,4-tetrahydroisoquinoline-6-carboxamide hydrochloride]",>5.0-7.0
8,"Cl.O=C(NO)c1ccc2c(c1)CCN(C(=O)Cc1cccnc1)C2 [Example 8, N-Hydroxy-2-(pyridin-3-ylacetyl)-1,2,3,4-tetrahydroisoquinoline-6-carboxamide hydrochloride]",4.0-5.0
